Read-outs that look alike come from different tables or passages of the source. These are yes or no findings as the source states them, for the method shown. Binding seen in cells or lysates may run through a third protein. These calls come from enrichment with a bait or labelling near it, and not all partners need be listed. For some of these results: Where a sequence is shown, tags or fusion partners need not be part of it.
T1: Flag-TRIM11 (UniProt Q96F44)
T1 sequence: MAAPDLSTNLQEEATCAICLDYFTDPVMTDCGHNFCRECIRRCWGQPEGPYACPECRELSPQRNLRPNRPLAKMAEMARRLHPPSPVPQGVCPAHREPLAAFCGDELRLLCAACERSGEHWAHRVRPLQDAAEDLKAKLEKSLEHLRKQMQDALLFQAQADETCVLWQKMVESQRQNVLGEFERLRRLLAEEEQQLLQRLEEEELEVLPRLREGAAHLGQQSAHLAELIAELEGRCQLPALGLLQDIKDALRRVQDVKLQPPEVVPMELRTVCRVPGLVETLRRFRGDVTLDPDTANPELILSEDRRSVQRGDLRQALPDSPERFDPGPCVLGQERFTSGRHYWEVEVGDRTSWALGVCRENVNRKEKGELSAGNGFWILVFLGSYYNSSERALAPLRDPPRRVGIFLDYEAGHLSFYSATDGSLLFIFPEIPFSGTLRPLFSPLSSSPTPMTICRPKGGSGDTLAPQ

The chains behind the UniProt entries cited, without tags or fusion partners.
UniProt P54578: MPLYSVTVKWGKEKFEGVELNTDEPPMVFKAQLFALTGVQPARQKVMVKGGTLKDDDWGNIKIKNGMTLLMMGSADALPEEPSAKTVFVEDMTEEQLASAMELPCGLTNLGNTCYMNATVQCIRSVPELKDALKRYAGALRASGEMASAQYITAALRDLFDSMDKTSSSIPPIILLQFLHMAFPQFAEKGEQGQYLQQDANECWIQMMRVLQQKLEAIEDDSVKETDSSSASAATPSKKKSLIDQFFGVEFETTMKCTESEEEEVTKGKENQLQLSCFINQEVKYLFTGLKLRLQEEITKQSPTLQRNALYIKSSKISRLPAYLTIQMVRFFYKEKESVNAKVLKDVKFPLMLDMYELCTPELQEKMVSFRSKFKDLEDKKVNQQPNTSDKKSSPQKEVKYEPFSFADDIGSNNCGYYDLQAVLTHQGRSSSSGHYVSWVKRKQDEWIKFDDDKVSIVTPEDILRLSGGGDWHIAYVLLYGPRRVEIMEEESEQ
UniProt Q96RN5: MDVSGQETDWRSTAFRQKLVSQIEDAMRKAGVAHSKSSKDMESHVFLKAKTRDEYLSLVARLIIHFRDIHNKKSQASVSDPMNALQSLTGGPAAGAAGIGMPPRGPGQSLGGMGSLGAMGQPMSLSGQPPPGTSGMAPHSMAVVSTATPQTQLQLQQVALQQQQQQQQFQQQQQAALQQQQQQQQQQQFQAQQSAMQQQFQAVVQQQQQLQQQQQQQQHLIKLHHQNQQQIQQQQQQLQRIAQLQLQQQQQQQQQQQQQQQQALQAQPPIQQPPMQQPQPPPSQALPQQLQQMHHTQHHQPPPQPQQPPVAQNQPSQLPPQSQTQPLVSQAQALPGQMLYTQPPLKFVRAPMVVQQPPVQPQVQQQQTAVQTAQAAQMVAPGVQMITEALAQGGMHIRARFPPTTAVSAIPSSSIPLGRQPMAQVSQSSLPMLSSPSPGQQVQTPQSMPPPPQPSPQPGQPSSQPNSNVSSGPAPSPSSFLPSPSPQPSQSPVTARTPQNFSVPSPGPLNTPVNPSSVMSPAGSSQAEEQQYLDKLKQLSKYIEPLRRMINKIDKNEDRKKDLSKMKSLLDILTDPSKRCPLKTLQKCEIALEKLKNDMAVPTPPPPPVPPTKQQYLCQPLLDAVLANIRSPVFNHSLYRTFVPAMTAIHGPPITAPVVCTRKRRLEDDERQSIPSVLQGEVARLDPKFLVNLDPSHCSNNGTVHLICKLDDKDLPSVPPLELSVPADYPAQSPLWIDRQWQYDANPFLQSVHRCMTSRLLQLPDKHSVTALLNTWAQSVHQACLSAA
UniProt Q13200: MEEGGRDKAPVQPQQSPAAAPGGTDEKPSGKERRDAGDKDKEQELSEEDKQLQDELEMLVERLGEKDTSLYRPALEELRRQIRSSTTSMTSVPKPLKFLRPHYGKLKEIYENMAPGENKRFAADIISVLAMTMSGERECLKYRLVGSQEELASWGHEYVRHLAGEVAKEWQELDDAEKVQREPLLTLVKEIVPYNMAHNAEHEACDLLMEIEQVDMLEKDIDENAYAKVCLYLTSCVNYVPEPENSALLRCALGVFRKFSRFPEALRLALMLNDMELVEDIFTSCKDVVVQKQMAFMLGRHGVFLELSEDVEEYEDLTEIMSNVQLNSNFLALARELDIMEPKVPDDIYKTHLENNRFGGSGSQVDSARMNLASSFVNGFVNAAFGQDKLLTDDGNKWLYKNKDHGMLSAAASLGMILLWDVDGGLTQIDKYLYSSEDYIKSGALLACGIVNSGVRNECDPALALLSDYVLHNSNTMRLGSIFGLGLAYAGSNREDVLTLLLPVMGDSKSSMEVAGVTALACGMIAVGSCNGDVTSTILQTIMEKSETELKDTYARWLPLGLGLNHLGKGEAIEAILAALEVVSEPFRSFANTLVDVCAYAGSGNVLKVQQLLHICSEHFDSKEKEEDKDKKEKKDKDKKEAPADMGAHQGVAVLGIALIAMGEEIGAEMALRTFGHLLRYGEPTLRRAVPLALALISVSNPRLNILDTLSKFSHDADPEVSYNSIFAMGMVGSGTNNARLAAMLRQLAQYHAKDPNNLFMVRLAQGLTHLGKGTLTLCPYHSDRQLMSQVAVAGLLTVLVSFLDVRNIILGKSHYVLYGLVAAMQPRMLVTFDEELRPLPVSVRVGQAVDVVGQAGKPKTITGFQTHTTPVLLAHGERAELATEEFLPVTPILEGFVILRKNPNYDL
UniProt Q13263: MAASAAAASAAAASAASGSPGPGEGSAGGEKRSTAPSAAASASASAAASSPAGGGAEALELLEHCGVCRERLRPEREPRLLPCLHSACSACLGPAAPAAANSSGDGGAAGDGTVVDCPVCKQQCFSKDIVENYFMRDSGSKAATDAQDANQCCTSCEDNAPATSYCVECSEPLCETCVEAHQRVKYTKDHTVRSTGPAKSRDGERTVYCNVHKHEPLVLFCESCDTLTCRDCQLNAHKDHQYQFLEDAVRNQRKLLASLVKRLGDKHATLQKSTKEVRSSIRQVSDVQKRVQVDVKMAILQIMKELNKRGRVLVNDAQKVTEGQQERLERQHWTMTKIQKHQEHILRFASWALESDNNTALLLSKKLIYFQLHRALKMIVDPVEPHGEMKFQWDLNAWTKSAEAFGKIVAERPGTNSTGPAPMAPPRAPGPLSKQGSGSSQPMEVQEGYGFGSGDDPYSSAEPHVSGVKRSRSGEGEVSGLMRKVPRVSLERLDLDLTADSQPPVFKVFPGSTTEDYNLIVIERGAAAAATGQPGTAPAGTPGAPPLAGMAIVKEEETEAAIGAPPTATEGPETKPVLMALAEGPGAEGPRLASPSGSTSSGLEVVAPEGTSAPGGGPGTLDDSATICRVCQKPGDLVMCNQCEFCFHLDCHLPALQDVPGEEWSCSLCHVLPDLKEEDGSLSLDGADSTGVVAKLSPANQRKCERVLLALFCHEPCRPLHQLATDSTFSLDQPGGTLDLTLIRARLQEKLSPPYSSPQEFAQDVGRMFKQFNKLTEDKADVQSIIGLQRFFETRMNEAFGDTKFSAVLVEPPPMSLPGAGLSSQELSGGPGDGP

B1: endogenous TRIM11 (protein, UniProt Q96F44 1-468)
chain: T1 sequence

Legend:
Assay in all cases: affinity purification with mass spectrometry; lysates of HCT116 cells stably expressing control vector, Flag-TRIM11 or HA-Flag-USP14; anti-Flag M2 beads, 4 °C, 4 h; 50 mM HEPES pH 7.4, 150 mM NaCl, 0.5% NP-40, 0.5% Triton X-100; eluted with 3xFLAG peptide
Flag-TRIM11 = molecular target: T1, Flag-TRIM11
HA-Flag-USP14 (human) [1] = molecular target: HA-Flag-USP14 (human) (UniProt P54578)
HA-Flag-USP14 (human) [2] = molecular target: HA-Flag-USP14 (human) (UniProt P54578); remark: listed apart in the source

binding (Flag-TRIM11)	other results	Molecule
binds		MED15 (from UniProt Q96RN5 1-788)
binds		endogenous PSMD2 (from UniProt Q13200 1-908)
	binding (HA-Flag-USP14 (human) [1]): binds	TRIM28 (from UniProt Q13263 1-835)
	binding (HA-Flag-USP14 (human) [2]): binds	B1
